From the supplement of paper PMC10849652
Some of the results follow.

Sequences of proteins named here, by UniProt entry; tags and fusion partners are left off. A change or cut given only in a name is not applied to a line headed by its entry.
UniProt Q96NT0: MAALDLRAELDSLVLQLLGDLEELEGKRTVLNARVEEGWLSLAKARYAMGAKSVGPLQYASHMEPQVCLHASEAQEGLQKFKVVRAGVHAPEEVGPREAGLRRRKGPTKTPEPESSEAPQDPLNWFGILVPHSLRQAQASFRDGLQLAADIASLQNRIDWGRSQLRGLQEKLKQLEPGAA
UniProt Q2TAC2: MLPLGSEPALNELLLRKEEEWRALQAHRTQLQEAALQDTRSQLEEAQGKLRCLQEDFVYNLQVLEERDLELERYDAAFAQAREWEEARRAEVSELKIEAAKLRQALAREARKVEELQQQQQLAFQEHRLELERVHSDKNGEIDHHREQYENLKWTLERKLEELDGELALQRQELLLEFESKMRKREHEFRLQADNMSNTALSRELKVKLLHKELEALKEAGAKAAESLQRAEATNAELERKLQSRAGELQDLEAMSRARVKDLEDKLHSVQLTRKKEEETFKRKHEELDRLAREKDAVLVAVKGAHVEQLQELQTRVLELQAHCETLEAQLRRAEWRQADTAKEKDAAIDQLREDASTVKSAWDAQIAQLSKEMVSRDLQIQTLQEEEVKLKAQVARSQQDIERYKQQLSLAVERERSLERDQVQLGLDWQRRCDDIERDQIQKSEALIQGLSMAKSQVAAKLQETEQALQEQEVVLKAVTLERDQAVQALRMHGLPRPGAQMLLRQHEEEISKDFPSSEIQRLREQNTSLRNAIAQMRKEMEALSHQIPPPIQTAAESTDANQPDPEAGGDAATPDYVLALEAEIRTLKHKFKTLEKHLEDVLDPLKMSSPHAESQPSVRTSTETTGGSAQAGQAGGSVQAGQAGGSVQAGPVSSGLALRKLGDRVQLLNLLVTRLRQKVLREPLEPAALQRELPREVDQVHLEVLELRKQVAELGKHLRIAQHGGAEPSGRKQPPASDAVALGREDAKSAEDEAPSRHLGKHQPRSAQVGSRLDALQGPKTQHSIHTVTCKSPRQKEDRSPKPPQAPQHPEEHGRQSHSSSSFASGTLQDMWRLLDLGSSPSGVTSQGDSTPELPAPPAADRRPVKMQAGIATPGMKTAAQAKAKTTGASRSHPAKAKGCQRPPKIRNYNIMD
UniProt P42574: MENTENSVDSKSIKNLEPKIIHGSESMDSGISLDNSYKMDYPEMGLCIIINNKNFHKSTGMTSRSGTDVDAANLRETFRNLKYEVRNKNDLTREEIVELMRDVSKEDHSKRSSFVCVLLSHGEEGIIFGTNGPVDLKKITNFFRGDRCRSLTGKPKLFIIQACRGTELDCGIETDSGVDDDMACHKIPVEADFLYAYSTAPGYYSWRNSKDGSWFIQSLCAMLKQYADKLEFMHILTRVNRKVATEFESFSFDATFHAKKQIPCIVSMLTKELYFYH
UniProt Q8N4T8: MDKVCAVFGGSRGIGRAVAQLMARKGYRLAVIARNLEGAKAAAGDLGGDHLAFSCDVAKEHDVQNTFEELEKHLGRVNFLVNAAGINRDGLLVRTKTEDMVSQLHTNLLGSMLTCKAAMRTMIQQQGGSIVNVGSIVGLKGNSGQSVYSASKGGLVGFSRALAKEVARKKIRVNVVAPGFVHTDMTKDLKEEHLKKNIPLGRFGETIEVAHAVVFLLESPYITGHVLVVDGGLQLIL
UniProt P60033: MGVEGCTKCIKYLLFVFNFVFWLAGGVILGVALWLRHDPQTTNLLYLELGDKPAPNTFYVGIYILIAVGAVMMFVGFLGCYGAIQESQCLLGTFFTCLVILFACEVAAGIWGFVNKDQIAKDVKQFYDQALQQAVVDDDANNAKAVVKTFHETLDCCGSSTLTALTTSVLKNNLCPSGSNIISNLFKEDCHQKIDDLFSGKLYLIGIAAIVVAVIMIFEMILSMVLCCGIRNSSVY
UniProt Q6P1N0: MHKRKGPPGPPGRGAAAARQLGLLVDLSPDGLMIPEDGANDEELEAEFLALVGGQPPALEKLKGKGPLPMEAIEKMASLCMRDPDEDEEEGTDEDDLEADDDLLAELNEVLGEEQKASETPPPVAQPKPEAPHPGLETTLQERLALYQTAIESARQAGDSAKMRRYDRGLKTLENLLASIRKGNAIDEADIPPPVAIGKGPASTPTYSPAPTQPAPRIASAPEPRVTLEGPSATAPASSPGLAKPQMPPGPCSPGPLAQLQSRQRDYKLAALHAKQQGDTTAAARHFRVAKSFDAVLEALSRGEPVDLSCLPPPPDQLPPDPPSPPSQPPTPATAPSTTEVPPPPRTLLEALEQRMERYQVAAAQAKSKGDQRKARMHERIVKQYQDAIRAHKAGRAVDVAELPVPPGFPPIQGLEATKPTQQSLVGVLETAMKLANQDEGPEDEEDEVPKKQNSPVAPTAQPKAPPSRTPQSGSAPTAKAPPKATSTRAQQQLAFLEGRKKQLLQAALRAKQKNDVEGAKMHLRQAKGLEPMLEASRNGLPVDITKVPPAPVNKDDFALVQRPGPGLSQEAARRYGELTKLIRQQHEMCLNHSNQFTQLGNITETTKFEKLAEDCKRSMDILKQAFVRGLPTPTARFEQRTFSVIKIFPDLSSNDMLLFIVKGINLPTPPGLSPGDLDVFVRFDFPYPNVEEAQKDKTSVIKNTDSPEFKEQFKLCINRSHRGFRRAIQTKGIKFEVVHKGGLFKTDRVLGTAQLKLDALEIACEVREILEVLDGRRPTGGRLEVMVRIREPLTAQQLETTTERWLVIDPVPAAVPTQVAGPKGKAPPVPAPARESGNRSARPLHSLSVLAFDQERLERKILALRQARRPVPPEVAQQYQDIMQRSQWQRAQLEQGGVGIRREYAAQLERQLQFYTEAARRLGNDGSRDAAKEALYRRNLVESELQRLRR
UniProt Q3V6T2: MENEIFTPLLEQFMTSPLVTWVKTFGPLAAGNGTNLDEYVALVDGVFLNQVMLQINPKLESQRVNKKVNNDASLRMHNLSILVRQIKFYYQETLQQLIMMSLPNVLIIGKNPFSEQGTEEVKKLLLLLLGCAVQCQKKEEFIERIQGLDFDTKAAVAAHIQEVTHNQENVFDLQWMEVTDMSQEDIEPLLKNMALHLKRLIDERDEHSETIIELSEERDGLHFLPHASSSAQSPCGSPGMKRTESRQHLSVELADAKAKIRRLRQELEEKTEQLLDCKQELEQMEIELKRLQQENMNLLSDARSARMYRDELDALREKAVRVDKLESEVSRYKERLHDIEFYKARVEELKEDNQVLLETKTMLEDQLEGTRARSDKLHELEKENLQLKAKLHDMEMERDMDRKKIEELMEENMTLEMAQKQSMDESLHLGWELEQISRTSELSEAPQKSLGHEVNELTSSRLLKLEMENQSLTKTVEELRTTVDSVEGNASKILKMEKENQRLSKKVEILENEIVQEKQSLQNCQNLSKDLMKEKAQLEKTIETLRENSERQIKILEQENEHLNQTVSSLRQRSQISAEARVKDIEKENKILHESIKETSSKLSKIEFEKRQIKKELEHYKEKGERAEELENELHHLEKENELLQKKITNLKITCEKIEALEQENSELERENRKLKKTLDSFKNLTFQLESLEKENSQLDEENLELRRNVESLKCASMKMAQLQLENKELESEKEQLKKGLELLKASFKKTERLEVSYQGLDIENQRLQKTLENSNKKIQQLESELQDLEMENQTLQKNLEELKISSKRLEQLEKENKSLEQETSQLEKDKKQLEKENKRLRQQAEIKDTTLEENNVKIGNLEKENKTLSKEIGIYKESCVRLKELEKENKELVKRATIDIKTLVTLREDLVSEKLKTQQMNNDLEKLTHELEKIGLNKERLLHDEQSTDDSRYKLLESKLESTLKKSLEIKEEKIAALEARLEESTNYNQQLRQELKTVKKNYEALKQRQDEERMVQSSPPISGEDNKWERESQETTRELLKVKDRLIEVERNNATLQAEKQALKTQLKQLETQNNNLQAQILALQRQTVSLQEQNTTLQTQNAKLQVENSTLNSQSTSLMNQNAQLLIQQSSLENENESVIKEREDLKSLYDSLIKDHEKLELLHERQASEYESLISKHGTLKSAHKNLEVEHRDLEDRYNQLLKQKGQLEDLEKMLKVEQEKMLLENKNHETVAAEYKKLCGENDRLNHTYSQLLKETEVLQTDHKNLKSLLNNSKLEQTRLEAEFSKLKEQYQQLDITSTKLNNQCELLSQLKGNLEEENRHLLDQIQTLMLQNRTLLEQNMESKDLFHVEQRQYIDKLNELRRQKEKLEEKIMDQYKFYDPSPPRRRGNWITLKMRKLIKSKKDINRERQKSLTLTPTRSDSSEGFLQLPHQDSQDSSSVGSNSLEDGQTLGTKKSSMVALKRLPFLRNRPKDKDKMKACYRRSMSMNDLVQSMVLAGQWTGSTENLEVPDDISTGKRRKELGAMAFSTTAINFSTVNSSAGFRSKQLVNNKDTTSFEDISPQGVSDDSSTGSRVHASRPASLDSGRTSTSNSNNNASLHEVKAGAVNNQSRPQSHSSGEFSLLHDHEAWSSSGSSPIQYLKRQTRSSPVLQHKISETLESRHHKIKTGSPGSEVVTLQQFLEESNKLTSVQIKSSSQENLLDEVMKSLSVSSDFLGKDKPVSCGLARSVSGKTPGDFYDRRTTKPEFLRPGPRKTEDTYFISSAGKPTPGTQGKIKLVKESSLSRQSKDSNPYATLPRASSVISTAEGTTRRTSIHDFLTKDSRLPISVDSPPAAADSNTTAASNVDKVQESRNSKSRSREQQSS
UniProt Q5T0F9: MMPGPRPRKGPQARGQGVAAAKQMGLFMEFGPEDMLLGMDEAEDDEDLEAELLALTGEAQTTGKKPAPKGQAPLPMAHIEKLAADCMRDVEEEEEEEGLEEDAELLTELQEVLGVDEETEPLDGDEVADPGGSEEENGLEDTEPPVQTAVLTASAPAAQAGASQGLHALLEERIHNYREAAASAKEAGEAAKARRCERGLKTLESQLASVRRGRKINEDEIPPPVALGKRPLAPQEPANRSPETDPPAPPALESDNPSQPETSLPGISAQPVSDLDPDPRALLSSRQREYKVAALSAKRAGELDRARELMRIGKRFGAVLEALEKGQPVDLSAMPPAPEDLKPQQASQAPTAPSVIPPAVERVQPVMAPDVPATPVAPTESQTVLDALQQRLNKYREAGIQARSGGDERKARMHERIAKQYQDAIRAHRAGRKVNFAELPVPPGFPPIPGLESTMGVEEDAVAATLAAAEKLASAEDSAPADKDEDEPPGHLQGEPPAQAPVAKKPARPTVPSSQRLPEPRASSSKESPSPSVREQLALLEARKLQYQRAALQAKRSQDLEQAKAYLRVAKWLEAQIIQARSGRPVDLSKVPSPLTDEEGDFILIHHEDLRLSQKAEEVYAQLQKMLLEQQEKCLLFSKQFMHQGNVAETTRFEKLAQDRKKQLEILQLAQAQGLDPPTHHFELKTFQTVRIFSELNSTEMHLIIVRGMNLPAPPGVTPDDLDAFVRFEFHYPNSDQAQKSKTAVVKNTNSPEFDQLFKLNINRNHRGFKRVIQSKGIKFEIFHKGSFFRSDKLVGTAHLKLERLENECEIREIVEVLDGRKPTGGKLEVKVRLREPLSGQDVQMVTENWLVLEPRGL
UniProt Q96A33: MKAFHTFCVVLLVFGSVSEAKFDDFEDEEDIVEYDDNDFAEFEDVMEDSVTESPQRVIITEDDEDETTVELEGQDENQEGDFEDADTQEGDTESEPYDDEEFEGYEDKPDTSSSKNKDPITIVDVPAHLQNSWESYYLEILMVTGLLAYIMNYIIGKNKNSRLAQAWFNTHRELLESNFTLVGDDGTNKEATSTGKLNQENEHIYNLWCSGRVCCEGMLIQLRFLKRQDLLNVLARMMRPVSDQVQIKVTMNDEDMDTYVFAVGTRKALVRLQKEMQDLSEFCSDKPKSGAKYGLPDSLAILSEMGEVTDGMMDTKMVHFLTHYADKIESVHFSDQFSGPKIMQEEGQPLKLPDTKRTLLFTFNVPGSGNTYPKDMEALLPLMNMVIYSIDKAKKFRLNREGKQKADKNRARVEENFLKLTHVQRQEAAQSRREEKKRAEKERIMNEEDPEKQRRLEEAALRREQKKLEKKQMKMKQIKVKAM
UniProt Q9Y3X0: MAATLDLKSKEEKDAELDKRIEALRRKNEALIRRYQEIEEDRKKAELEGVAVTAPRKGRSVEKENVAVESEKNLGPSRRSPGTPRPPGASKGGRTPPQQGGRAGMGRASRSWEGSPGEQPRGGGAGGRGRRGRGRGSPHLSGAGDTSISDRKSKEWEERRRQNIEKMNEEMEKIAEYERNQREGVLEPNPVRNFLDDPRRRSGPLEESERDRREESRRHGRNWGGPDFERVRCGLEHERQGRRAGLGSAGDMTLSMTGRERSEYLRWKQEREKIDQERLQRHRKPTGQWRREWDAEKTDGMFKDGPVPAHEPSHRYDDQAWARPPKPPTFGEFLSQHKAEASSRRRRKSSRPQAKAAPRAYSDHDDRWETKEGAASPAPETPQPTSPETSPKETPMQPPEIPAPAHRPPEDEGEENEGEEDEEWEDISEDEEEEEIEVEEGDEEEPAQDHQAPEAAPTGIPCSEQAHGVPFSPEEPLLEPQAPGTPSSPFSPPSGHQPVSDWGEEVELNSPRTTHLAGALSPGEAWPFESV

These targets were tested with CC1=C2C(=CC=C1)N=C(N(C2=O)C3=CC=CC=C3C)CN4C=NC5=C(N=CN=C54)N (assay: log2 fold change, soluble protein after heating vs DMSO (PISA); higher = thermal stabilisation; K562 lysate, 10 uM; active = over 0.2 and 3.5 SD of the protein, either way, in both replicates (recomputed)).
Summary of the method: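 Quantification was by TMTpro 16plex LC-MS/MS with equalised channel sums, applied to the supernatant after 21,000xg for 90 min. Samples were crude K562 extract at 1 mg/mL protein in PBS pH 7.4 with 1 mM MgCl2, treated with 10 μM compound for 30 min, heated for 3 min across 48°C-58°C, pooled and brought to 0.5% NP-40 at 4°C. Values are log-two fold changes in thermal stability relative to solvent controls, from duplicates.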

Target | log2 fold change
CCDC115 (UniProt Q96NT0) | inactive: 0.032
CCT4 (UniProt P50991) | inactive: -0.005
CCDC85C (UniProt A6NKD9) | inactive: -0.04
CCDC85B (UniProt Q15834) | inactive: 0.08
CCDC124 (UniProt Q96CT7) | inactive: -0.014
CD47 (UniProt Q08722) | inactive: -0.01
CBX5 (UniProt P45973) | inactive: -0.038
CAT (UniProt P04040) | inactive: -0.01
CASK (UniProt O14936) | inactive: 0.098
CASC3 (UniProt O15234) | inactive: -0.016
CBX1 (UniProt P83916) | inactive: 0.032
CCDC57 (UniProt Q2TAC2) | inactive: -0.013
CBX3 (UniProt Q13185) | inactive: 0.028
CASP3 (UniProt P42574) | inactive: 0.039
CBR4 (UniProt Q8N4T8) | inactive: 0.062
CAVIN2 (UniProt O95810) | inactive: -0.04
CD2AP (UniProt Q9Y5K6) | inactive: -0.009
CCDC28B (UniProt Q9BUN5) | inactive: -0.006
CCT8 (UniProt P50990) | inactive: -0.001
CD81 (UniProt P60033) | inactive: 0.051

Reformatted: results already given.
Target	log2 fold change
CCDC85B (UniProt Q15834)	inactive: 0.08
CBX1 (UniProt P83916)	inactive: 0.032

(further entries)

Target | log2 fold change
CCDC186 (UniProt Q7Z3E2) | inactive: 0.055
CCNC (UniProt P24863) | inactive: -0.035
CD320 (UniProt Q9NPF0) | inactive: 0.011
CC2D1A (UniProt Q6P1N0) | inactive: 0.05
CD55 isoform 7 (UniProt P08174) | inactive: 0.003
CCDC134 (UniProt Q9H6E4) | inactive: 0.057
CCNB2 (UniProt O95067) | inactive: 0.047
CASP9 (UniProt P55211) | inactive: 0.019
CASP6 (UniProt P55212) | inactive: 0.015
CCNE1 (UniProt P24864) | inactive: 0.108
CCDC88A (UniProt Q3V6T2) | inactive: 0.006
CC2D1B isoform 2 (UniProt Q5T0F9) | inactive: -0.011
CD63 (UniProt P08962) | inactive: -0.008
CCDC47 (UniProt Q96A33) | inactive: 0.022
CCPG1 isoform 5 (UniProt Q9ULG6) | inactive: 0.046
CCM2 isoform 2 (UniProt Q9BSQ5) | inactive: 0.029
CCS (UniProt O14618) | inactive: 0.015
CCDC9 (UniProt Q9Y3X0) | inactive: -0.024
CCNT1 (UniProt O60563) | inactive: -0.077
